From PMC7819943, “Rice protein-binding microarrays: a tool to detect cis-acting elements near promoter regions in rice”
This is one part of the list.

Target: T1, OsSMF1 (Oryza sativa, UniProt Q6ZLB0 1-436)
T1 sequence: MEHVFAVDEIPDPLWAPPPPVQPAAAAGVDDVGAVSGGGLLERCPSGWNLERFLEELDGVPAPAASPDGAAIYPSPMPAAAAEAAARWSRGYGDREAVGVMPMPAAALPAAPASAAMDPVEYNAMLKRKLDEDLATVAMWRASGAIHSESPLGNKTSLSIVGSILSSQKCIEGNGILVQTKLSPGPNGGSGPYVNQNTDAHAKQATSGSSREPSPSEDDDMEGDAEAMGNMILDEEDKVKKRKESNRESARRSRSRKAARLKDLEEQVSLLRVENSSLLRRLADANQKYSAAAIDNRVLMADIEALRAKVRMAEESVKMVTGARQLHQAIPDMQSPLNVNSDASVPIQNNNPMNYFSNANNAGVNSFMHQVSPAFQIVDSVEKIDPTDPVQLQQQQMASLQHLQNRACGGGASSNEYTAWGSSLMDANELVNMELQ
Test: protein-binding microarray (RPBM); PBS, 2% BSA, 51.3 ng/ul salmon testes DNA, 50 uM zinc acetate, 200 nM TF, 25 C, 1 h; high values mean tight binding
Settings: protein: recombinant; tags: N-terminal polyhistidine and DsRed monomer fusion (pET32a); chain copies: 2; label: CyDye5-dUTP incorporated in the synthesized complementary strand; 3' TTTTT single-stranded linker to array surface; dsDNA, one strand shown
In short: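 Transcription factors, each fused N-terminally to a polyhistidine tag and DsRed, were expressed in E. coli BL21-CodonPlus and purified on Ni–NTA. A custom Agilent array was made double-stranded by primer extension with Cy5-dUTP and blocked with 2% BSA. It was incubated with 200 nM protein in PBS, 2% BSA, salmon testes DNA and 50 µM zinc acetate at 25 °C for 1 h, then washed. The binding signal is per-feature fluorescence intensity (arbitrary units) read on an Axon 4000B scanner.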

Sequence	binding signal
GAGCGCTGCGTGCGCGCGCGTCCGCGGCCACGCCATCCGCCGGAGTCACCTAGTGCAG	4600 fluorescence intensity (a.u.)
CGGTGACACTGCATGGCCAATTGAGTTAGTCATTGCCCATCGGAGTCACCTAGTGCAG	3670 fluorescence intensity (a.u.)
ACCCCACAACGCACGCGTGAGTTCGTGACGCGTCACGCCCCGGAGTCACCTAGTGCAG	7320 fluorescence intensity (a.u.)
CTTTCATCACCACCGGCCCCGTGGCCCCACGCGTCAGGTCCGGAGTCACCTAGTGCAG	4820 fluorescence intensity (a.u.)
TAATTTGGTCCATGCCATGCTGATAAAGCATGTTTCTTCTCGGAGTCACCTAGTGCAG	3880 fluorescence intensity (a.u.)
AGATTTGTCCATGTCATCACGAGTAAAAGTTTTATTTGTGCGGAGTCACCTAGTGCAG	7460 fluorescence intensity (a.u.)
TTTGATGTGCGTGCGTGCTGTACTTTGTAAGACGCAGCATCGGAGTCACCTAGTGCAG	3160 fluorescence intensity (a.u.)
TGGTGGTGGGTGAGTGTTGGGTGCGCAGGCTCTGGGGTAACGGAGTCACCTAGTGCAG	3430 fluorescence intensity (a.u.)
CGGCTCCACCTCGCGCCCTGACCTGACGCGGATAGGTTTTCGGAGTCACCTAGTGCAG	4630 fluorescence intensity (a.u.)
TTGGAAGGAAGGCTTGGAAGATTTGTGATGGATGACAAGGCGGAGTCACCTAGTGCAG	3950 fluorescence intensity (a.u.)
GGCACCTCTCTCTCCGGTGAATCTCGCGTCCACGTTGGTTCGGAGTCACCTAGTGCAG	22500 fluorescence intensity (a.u.)
TTTTGTGGAAGCGTGTGGACACGTGGTGGGCCCTGGGCCTCGGAGTCACCTAGTGCAG	8630 fluorescence intensity (a.u.)
CTCCCGGCAGAAGCAAGCGGGGCATGTGCGGCCGTCCGGCCGGAGTCACCTAGTGCAG	3600 fluorescence intensity (a.u.)
AGCGCTGCCCCGCCACGGTGGCAGGAGGACTGGCGCCGTCCGGAGTCACCTAGTGCAG	5020 fluorescence intensity (a.u.)
TCCATTGGGCATCCATAGTCCATGCACCATGATGGAGAGGCGGAGTCACCTAGTGCAG	4750 fluorescence intensity (a.u.)
TTGTCTGTACTGTTAGCATGAGTCACTTGTGCATGTTTAGCGGAGTCACCTAGTGCAG	6730 fluorescence intensity (a.u.)
TTCTAATTACTATTTAAGCTTATCCTAATTAACTCACATGCGGAGTCACCTAGTGCAG	3230 fluorescence intensity (a.u.)
GTATAGATGACGGAAGCGGACTTCGTTTCGTTTTGTTTGGCGGAGTCACCTAGTGCAG	3400 fluorescence intensity (a.u.)
TTACTAGAGCTAATGAAGGCATGCCAAATTTGACATCATGCGGAGTCACCTAGTGCAG	3350 fluorescence intensity (a.u.)
TTTACGTTTGCCTGCATCTTTCTGACCTGTATACTAATTTCGGAGTCACCTAGTGCAG	5280 fluorescence intensity (a.u.)
GCTCAGGTTCTGCATTATTGGCGCAGTACGTACGTGTTCACGGAGTCACCTAGTGCAG	3760 fluorescence intensity (a.u.)
TTTGCCATGTTTGATGTGGCTCAGATCCACTTACTTCGCGCGGAGTCACCTAGTGCAG	3870 fluorescence intensity (a.u.)
ACAAAAGAGTAGATATGCCACATCACTAGCAGTTAGTCATCGGAGTCACCTAGTGCAG	13400 fluorescence intensity (a.u.)

Reformatted: results already given
GGCACCTCTCTCTCCGGTGAATCTCGCGTCCACGTTGGTTCGGAGTCACCTAGTGCAG
  binding signal: 22500 fluorescence intensity (a.u.)
TTTTGTGGAAGCGTGTGGACACGTGGTGGGCCCTGGGCCTCGGAGTCACCTAGTGCAG
  binding signal: 8630 fluorescence intensity (a.u.)
